# Laboratory results published in patent US20230112845A1, “COMPOSITIONS OF BERBERINE URSODE[…] METHODS THEREOF FOR TREATING FATTY LIVER DISEASE, DIABETES AND HYPERLIPIDEMIA” (SHENZHEN HIGHTIDE BIOPHARMACEUTICAL LTD., priority 2020, published 2023).
# System: patients with presumed NASH and type 2 diabetes
# Experiment: Phase 2 trial: change in serum bile acids
# Assay type: in vivo, human
# Settings: 1000 mg treatment group, Baseline to Week 18
structure (smiles),measurement,setting,value
"COc1ccc2cc3[n+](cc2c1OC)CCc1cc2c(cc1-3)OCO2.C[C@H](CCC(=O)[O-])[C@H]1CC[C@H]2[C@@H]3[C@@H](O)C[C@@H]4C[C@H](O)CC[C@]4(C)[C@H]3CC[C@]12C [BUDCA, berberine ursodeoxycholate]","Primary bile acids and metabolites, Percent Change from Baseline, Mean",,114%
same,"Secondary bile acids and metabolites, Percent Change from Baseline, Mean",,−13%
same,"Total bile acids, Percent Change from Baseline, Mean",,256%
same,"Urso bile acids, Absolute Change from Baseline, Median",,2072
same,"Urso bile acids, Percent Change from Baseline, Mean",,4741%
same,"Urso bile acids, Percent Change from Baseline, Median",,1975%
same,"Total bile acids, Absolute Change from Baseline, Mean",P vs Placebo 0.016,1625
same,"Secondary bile acids and metabolites, Absolute Change from Baseline, Mean",P vs Placebo 0.459,−28
same,"Primary bile acids and metabolites, Absolute Change from Baseline, Mean",P vs Placebo 0.882,−171
same,"Urso bile acids, Absolute Change from Baseline, Mean",P vs Placebo <0.001,1824
